Measured values: article doi:10.1101/695155
Where two headings read alike, the source gives them in different places. These are yes or no findings as the source states them, for the method shown. Binding seen in cells or lysates may run through a third protein. Some entries that bind do so weakly or less than the wild type. Sequences can lack the tags named with a protein.

Amino acid sequences for entries named in this document (tags omitted). A change or cut given only in a name is not applied to a line headed by its entry.
UniProt Q6P5H2: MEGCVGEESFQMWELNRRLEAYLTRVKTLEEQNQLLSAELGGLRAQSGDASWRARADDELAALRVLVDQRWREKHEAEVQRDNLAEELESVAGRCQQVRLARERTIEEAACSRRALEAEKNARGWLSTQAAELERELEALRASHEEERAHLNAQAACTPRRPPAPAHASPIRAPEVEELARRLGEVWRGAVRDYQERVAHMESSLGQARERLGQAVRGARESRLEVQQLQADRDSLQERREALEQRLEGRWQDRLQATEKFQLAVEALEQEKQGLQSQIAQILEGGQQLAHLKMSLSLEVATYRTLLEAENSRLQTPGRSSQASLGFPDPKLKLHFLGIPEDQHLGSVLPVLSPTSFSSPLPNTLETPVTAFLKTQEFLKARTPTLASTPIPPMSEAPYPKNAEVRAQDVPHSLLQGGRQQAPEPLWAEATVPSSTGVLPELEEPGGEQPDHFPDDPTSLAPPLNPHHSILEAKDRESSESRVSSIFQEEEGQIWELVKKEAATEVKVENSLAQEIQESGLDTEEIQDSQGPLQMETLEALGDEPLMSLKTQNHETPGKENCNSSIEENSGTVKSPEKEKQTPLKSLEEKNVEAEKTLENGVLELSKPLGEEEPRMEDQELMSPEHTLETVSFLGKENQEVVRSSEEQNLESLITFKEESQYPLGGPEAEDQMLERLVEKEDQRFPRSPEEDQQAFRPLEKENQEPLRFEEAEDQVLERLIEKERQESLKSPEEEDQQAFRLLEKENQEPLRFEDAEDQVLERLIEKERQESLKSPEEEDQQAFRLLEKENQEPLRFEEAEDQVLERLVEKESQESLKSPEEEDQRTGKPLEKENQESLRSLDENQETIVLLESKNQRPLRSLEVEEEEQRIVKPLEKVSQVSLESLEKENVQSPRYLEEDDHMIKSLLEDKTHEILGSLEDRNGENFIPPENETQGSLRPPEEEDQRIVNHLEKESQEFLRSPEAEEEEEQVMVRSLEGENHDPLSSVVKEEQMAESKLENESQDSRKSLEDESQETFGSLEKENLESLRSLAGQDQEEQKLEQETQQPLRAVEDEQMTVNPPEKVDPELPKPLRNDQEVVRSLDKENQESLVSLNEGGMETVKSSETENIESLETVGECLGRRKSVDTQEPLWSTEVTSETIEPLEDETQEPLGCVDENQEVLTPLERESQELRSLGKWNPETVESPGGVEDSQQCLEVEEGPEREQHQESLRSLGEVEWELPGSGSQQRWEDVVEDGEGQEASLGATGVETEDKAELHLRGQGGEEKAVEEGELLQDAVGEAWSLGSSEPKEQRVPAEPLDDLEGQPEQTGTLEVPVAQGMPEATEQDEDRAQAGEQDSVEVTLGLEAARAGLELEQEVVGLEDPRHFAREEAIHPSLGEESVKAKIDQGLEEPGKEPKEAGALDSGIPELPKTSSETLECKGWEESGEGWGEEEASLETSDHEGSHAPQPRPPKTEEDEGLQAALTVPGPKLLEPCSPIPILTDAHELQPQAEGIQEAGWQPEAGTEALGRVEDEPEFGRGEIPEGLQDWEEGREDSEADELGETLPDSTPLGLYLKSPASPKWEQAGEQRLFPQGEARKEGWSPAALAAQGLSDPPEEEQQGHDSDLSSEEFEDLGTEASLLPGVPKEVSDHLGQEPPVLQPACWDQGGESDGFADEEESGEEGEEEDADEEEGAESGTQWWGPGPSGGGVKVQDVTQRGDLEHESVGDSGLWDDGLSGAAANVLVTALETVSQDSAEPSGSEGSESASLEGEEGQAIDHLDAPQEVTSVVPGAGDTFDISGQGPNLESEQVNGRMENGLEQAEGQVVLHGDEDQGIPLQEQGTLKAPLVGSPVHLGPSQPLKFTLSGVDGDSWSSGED
UniProt Q15078: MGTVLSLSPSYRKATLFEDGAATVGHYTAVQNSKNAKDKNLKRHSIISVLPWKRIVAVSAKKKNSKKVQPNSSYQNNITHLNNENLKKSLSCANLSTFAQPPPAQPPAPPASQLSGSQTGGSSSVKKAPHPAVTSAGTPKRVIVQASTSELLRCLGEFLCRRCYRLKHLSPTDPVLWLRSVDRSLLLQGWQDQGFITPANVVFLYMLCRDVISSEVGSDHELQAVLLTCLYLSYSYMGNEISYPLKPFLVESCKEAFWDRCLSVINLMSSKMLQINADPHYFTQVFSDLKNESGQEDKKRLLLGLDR

Assays:
Test in all cases: co-IP
INA-myc = target: T1, INA-myc (UniProt Q16352)
T1 sequence: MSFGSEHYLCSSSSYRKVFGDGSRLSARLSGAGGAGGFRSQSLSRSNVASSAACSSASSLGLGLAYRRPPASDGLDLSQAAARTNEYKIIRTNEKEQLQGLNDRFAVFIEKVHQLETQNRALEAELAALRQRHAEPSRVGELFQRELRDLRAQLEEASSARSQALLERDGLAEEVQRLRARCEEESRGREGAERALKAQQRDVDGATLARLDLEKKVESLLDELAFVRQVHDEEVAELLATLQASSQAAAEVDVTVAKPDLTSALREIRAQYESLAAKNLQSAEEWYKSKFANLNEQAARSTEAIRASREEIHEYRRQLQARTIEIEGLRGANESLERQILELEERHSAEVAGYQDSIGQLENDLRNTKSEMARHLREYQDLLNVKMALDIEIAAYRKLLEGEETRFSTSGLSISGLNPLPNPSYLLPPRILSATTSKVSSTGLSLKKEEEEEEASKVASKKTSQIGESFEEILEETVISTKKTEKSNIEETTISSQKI

Nestin-myc (mouse) [1] = target: Nestin-myc (mouse) (UniProt Q6P5H2)
Nestin-myc (mouse) [2] = target: Nestin-myc (mouse) (UniProt Q6P5H2); remark: listed apart in the source
p35 = p35 (UniProt Q15078)
Nestin-myc T316A (mouse) = Nestin-myc T316A (mouse) (UniProt Q6P5H2)
Nestin-myc (mouse) [3] = target: Nestin-myc (mouse) (UniProt Q6P5H2); remark: listed apart in the source

B1: GFP-DCX (protein, UniProt O43602 1-365)
chain: MELDFGHFDERDKTSRNMRGSRMNGLPSPTHSAHCSFYRTRTLQALSNEKKAKKVRFYRNGDRYFKGIVYAVSSDRFRSFDALLADLTRSLSDNINLPQGVRYIYTIDGSRKIGSMDELEEGESYVCSSDNFFKKVEYTKNVNPNWSVNVKTSANMKAPQSLASSNSAQARENKDFVRPKLVTIIRSGVKPRKAVRVLLNKKTAHSFEQVLTDITEAIKLETGVVKKLYTLDGKQVTCLHDFFGDDDVFIACGPEKFRYAQDDFSLDENECRVMKGNPSATAGPKASPTPQKTSAKSPGPMRRSKSPADSGNDQDANGTSSSQLSTPKSKQSPISTPTSPGSLRKHKDLYLPLSLDDSDSLGDSM
Question: B1 was tested. Which binding (INA-myc) did it give?
Answer: The binding was “no binding”.

Question: And the binding (Nestin-myc (mouse) [1])?
Answer: The binding was “binds”.

Question: And the binding (Nestin-myc (mouse) [2])?
Answer: Its binding is “binds”.

Question: And the binding (p35)?
Answer: The binding was “binds”.

Question: And the binding (Nestin-myc T316A (mouse))?
Answer: Its binding is “binds”.

Question: And the binding (Nestin-myc (mouse) [3])?
Answer: Its binding is “binds”.
